These are yes or no findings as the source states them, for the method shown. Some binding calls cover weakened binding; strength is not graded here.

Amino acid sequences for entries named in this document (tags omitted).
UniProt P31946: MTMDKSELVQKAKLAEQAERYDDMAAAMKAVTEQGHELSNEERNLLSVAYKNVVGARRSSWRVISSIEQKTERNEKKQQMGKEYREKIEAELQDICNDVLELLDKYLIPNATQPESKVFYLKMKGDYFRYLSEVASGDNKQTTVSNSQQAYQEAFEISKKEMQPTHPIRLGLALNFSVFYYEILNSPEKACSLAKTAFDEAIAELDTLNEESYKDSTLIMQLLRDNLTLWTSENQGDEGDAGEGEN
UniProt P62258: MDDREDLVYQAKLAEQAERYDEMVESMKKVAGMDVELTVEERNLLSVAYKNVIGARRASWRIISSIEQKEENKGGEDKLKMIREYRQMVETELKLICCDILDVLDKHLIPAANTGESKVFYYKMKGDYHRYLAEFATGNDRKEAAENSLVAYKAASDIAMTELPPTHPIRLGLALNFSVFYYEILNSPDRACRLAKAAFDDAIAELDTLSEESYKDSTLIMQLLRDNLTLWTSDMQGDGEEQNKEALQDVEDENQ
UniProt P63104: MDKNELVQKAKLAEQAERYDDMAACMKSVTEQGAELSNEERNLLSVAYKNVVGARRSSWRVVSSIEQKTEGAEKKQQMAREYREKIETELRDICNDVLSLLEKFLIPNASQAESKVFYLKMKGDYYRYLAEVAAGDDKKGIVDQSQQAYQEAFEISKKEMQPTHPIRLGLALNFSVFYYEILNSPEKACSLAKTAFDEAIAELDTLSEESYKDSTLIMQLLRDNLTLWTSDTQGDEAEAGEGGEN

In test [1] the target is T1, SHN3pT869 peptide, N-terminally FITC-Ahx-labelled (human).
T1 sequence (peptide, phosphothreonine at 869; FITC-Ahx on the N-terminus): PDRPDTEPEPPP
As to the kind of experiment: fluorescence polarisation; 14-3-3 isoforms (full length) serially diluted twofold in the presence of 10 nM FITC-labelled peptide; 50 mM Tris pH 7.5, 150 mM NaCl, 5 mM MgCl2, 0.05% Tween-20 (no reducing agent listed); one-site specific binding model; both purified. On the technique in general: Polarisation of emitted light reports the rotation of a fluorescent probe.

Test [2] deals with T2, 14-3-3σΔC (residues 231–248 deleted) (human) (UniProt P31947).
T2 sequence: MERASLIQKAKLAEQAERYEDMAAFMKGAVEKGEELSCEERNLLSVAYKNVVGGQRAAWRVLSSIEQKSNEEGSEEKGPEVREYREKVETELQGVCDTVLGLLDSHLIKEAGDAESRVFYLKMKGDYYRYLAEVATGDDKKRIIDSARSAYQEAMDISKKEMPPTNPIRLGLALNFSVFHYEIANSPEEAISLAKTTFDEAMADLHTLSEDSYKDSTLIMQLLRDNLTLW
As to the kind of experiment: crystal structure; 14-3-3σΔC at 10–15 mg/ml mixed with peptide in 1:1 and 1:1.2 molar ratios, overnight at 4°C in 20 mM HEPES pH 7.5, 2 mM MgCl2; crystals in 95 mM HEPES pH 7.1–7.7, 24–29% PEG 400, 190 mM CaCl2, 5% glycerol at 4°C; both purified.

Consider “14-3-3β (full length) (from UniProt P31946 1-246)”, for which the binding result in test [1] is given as “binds weakly”.
Same read-out and setting: to “14-3-3ɛ (full length) (from UniProt P62258 1-255)” belongs “binds weakly”; to “14-3-3ζ (full length) (from UniProt P63104 1-245)”, “binds weakly”.

B1: 14-3-3η (full length) (protein, UniProt Q04917 1-246)
chain: MGDREQLLQRARLAEQAERYDDMASAMKAVTELNEPLSNEDRNLLSVAYKNVVGARRSSWRVISSIEQKTMADGNEKKLEKVKAYREKIEKELETVCNDVLSLLDKFLIKNCNDFQYESKVFYLKMKGDYYRYLAEVASGEKKNSVVEASEAAYKEAFEISKEQMQPTHPIRLGLALNFSVFYYEIQNAPEQACLLAKQAFDDAIAELDTLNEDSYKDSTLIMQLLRDNLTLWTSDQQDEEAGEGN
For the molecule B1, in test [1], the binding result was “binds weakly”.

B2: 14-3-3γ (full length) (protein, UniProt P61981 1-247)
chain: MVDREQLVQKARLAEQAERYDDMAAAMKNVTELNEPLSNEERNLLSVAYKNVVGARRSSWRVISSIEQKTSADGNEKKIEMVRAYREKIEKELEAVCQDVLSLLDNYLIKNCSETQYESKVFYLKMKGDYYRYLAEVATGEKRATVVESSEKAYSEAHEISKEHMQPTHPIRLGLALNYSVFYYEIQNAPEQACHLAKTAFDDAIAELDTLNEDSYKDSTLIMQLLRDNLTLWTSDQQDDDGGEGNN
Take B2: the binding entry in test [1] is reported as “binds weakly”.

B3: 14-3-3τ (full length) (protein, UniProt P27348 1-245)
chain: MEKTELIQKAKLAEQAERYDDMATCMKAVTEQGAELSNEERNLLSVAYKNVVGGRRSAWRVISSIEQKTDTSDKKLQLIKDYREKVESELRSICTTVLELLDKYLIANATNPESKVFYLKMKGDYFRYLAEVACGDDRKQTIDNSQGAYQEAFDISKKEMQPTHPIRLGLALNFSVFYYEILNNPELACTLAKTAFDEAIAELDTLNEDSYKDSTLIMQLLRDNLTLWTSDSAGEECDAAEGAEN
For B3, the binding entry in test [1] was “binds weakly”.
On to PDRPDTEPEPPP (phosphothreonine at 869; N-terminal acetyl) [SHN3pT869 peptide, N-terminally acetylated], for which the binding result in test [2] was “binds weakly”.
